Numbering of substitutions follows the chain as printed.
B1: pol30-Rad27E6: PCNA mutant evolved for Rad27, IDCL sequence DGDYDILKIREL (protein)
chain: MLEAKFEEASLFKRIIDGFKDCVQLVNFQCKEDGIIAQAVDDSRVLLVSLEIGVEAFQEYRCDHPVTLGMDLTSLSKILRCGNNTDTLTLIADNTPDSIILLFEDTKKDRIAEYSLKLMDGDYDILKIRELQYDSTLSLPSSEFSKIVRDLSQLSDSINIMITKETIKFVADGDIGSGSVIIKPFVDMEHPETSIKLEMDQPVDLTFGAKYLLDIIKGSSLSDRVGIRLSSEAPALFQFDLKSGFLQFFLAPKFNDEE
modifications: left off: Gal4 activation domain, end not stated, kept
B2: pol30-Pol32E5: PCNA mutant evolved for Pol32, IDCL sequence DADNDFLKISEL (protein)
chain: B1 chain with G121A, Y123N, I125F, R129S
modifications: left off: Gal4 activation domain, end not stated, kept

Tested on: CAN1 locus
Test: Mutation spectra at the CAN1 locus
Assay type: cell-based, yeast
Details: for Frequency of frameshifts among CAN1 mutations / Frequency of substitutions among CAN1 mutations / Frequency of deletions among CAN1 mutations: events/sequenced Can^r clones; for Frequency of deletions among CAN1 mutations: 67 bp deletion in pol30-Pol32E5, 16 bp in pol30-Rad27E6; for Frequency (%) of deletions among CAN1 mutations / Frequency (%) of frameshifts among CAN1 mutations / Frequency (%) of substitutions among CAN1 mutations: value in parentheses
[1] = frameshift, events/total as printed
[2] = substitution, events/total as printed

Molecule	Frequency of frameshifts among CAN1 mutations	Frequency of substitutions among CAN1 mutations	Frequency of deletions among CAN1 mutations	Frequency of CAN1 mutation G1→G0 [1]	Frequency of CAN1 mutation G1→G2 [1]	Frequency of CAN1 mutation G2→G3 [1]	Frequency of CAN1 mutation T3→T4 [1]	Frequency of CAN1 mutation C→A [2]	Frequency of CAN1 mutation C→G [2]	Frequency of CAN1 mutation G→A [2]	Frequency of CAN1 mutation G→C [2]	Frequency of CAN1 mutation T→G [2]	Frequency (%) of deletions among CAN1 mutations [%]	Frequency (%) of frameshifts among CAN1 mutations [%]	Frequency (%) of substitutions among CAN1 mutations [%]	further results
B1	11/26	14/26	1/26	1/11	1/11	1/11	1/11	5/14	3/14	1/14	2/14	2/14	4	42	54	Frequency of CAN1 mutation A1→A0 [1]: 1/11; Frequency of CAN1 mutation A5→A6 [1]: 1/11; Frequency of CAN1 mutation T1→T0 [1]: 1/11; Frequency of CAN1 mutation T2→T1 [1]: 1/11; Frequency of CAN1 mutation T3→T2 [1]: 1/11; Frequency of CAN1 mutation A→C [2]: 1/14
B2	9/37	21/37	7/37	1/37	1/37	1/37	1/37	1/37	2/37	9/37	2/37	2/37	19	24	57	Frequency of CAN1 mutation A2→A3 [1]: 1/37; Frequency of CAN1 mutation C1→C0 [1]: 1/37; Frequency of CAN1 mutation T2→T3 [1]: 1/37; Frequency of CAN1 mutation T5→T4 [1]: 1/37; Frequency of CAN1 mutation T6→T5 [1]: 1/37; Frequency of CAN1 mutation G→T [2]: 5/37

Reference: paper PMC2953525, “Subtle Alterations in PCNA-Partner Interactions Severely Impair DNA Replication and Repair” (PLoS Biology, 2010)
